# Data published in PubChem BioAssay AID1439 (NMMLSC, 2008).
# Protein sequences, listed by entry. Tags and fused reporters are not part of them.
# UniProt P09471, whole entry, looked up: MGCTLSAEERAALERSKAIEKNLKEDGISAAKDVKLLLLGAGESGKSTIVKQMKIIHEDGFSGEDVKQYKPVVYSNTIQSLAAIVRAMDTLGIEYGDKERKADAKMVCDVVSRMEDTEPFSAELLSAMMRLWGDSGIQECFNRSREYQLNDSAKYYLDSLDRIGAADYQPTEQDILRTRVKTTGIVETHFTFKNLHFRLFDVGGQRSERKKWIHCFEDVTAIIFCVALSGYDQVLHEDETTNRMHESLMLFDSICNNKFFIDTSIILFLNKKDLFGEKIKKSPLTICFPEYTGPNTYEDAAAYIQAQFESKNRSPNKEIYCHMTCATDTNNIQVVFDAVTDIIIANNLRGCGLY
# Among all 220,000 compounds or so, about 770 (0.35%) were called active. The shares of active, inactive and inconclusive entries below differ from those in the screen. Rule as the data show it: active = binding response below about 49% or above about 150%; inconclusive = no clear call, values can overlap the other calls; inactive = in between.
# Target: Guanine nucleotide-binding protein G(o) subunit alpha (Homo sapiens) (UniProt P09471)
# Experiment: RGS7-Galphao binding modulators, primary screen, biochemical, multiplexed bead flow cytometry (AID 1439);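 also: fluorescent Galphao held in activated GDP-AlF4 state binding bead-coupled RGS7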
# Conditions: at 10 µM, actives lie on both sides
row,Compound,binding response (% of control)
1,Cc1csc(SCC(=O)NCc2ccccc2Cl)n1,inactive: 93.9%
2,O=C(O)c1cccc(N2C(=O)c3ccc(C(=O)c4cccc([N+](=O)[O-])c4)cc3C2=O)c1,inconclusive: 115%
3,O=S(=O)(NCc1cn2ccccc2n1)c1ccccc1F,inconclusive: 107%
4,CSc1nc2nc3c(cc2c(=O)n1-c1ccccc1C)COC(C)(C)C3,inconclusive: 93.4%
5,Nc1ccc(S(=O)(=O)Nc2cnc3ccccc3n2)cc1,inconclusive: 89.5%
6,NC(N)=Nc1ccc(N=C(N)N)cc1,inconclusive: 39.6%
7,COC(=O)c1cccc(NC(=S)Nc2ccc(Cl)c(Cl)c2)c1,inconclusive: 299%
8,COc1ccc(CC(=O)OCC(=O)Nc2ccc3c(c2)OCO3)cc1OC,inconclusive: 71.5%
9,Cc1ccc(C)c(CN2CCNC2=O)c1,active: 15.2%
10,O=C1CSC(=S)N1/N=C/c1ccc(Cl)c([N+](=O)[O-])c1,inconclusive: 97.3%
11,Cc1ccc(NC2OC(C(O)CO)C(O)C2O)cc1[N+](=O)[O-] (stereo not drawn),inactive: 98.9%
12,COc1ccc(NC(=O)N[C@@H](Cc2ccccc2)C(=O)NN)cc1,inconclusive: 83.8%
13,O=C(NNC(=O)c1cccc2ccccc12)c1ccc2c(c1)OCO2,inconclusive: 190%
14,Cc1csc2ncc(C(=O)Nc3ccccc3Cl)c(=O)n12,inactive: 102%
15,c1ccc(-n2ncc3c(NC4CCCCCC4)ncnc32)cc1,inconclusive: 78.8%
16,COc1ccc(-c2nc(-c3ccccn3)nc(N3CCN(C)CC3)c2C#N)cc1,inconclusive: 99.3%
17,COC(=O)c1ccc(N=Cc2c(-c3ccccc3)[nH][nH]c2=O)cc1,inconclusive: 103%
18,COc1ccc(CNCC(=O)Nc2cc(C)nn2-c2nc(C)cc(C)n2)cc1OC,inconclusive: 106%
19,COc1ccc2oc(=O)c(N3C(=O)c4ccccc4C3=O)cc2c1,inconclusive: 116%
20,CC(C)NCC(O)COCCOc1ccc(Cl)cc1 (stereo not drawn),inconclusive: 103%
21,O=C(N/N=C/c1c(Cl)[nH]c2ccccc12)c1ccc2c(c1)OCCO2,inconclusive: 43.6%
22,COc1cc(OC)cc(C(=O)N[C@H](C(=O)Nc2nnc(C3CC3)s2)C(C)C)c1,inconclusive: 95.6%
23,Cc1ccc(S(=O)(=O)N(C)c2cc(S(N)(=O)=O)c(C)cc2C)cc1,inconclusive: 81.1%
24,C=CCn1c(=N)n(CC(=O)c2ccc(OC)cc2)c2ccccc21,inconclusive: 104%

# 3 entries from above, arranged by molar mass, ascending:
row,Compound,binding response (% of control)
6,NC(N)=Nc1ccc(N=C(N)N)cc1,inconclusive: 39.6%
20,CC(C)NCC(O)COCCOc1ccc(Cl)cc1 (stereo not drawn),inconclusive: 103%
15,c1ccc(-n2ncc3c(NC4CCCCCC4)ncnc32)cc1,inconclusive: 78.8%

# Going on with the list:

row,Compound,binding response (% of control)
1,O=C(NCc1nc(-c2ccc(C(F)(F)F)cc2)no1)Nc1cc(Cl)cc(Cl)c1,inconclusive: 87.4%
2,COc1cc2[nH]c(=S)n(C3CC3)c(=O)c2cc1OC,inconclusive: 112%
3,N#Cc1ncc(Cl)c2ccccc12,inconclusive: 40.8%
4,CNCc1ccccc1OCc1ccc(F)cc1,inconclusive: 94.7%
5,O=C(CSc1nc(-c2ccccc2)c(-c2ccccc2)[nH]1)NCC1CCCO1 (stereo not drawn),inconclusive: 95.8%
6,Cc1cnc(NC(=O)c2ccncc2)s1,inconclusive: 101%
7,CCOC(=O)c1nnn2c1nc(Nc1cccc(C(F)(F)F)c1)c1ccccc12,inconclusive: 91.9%
8,Cc1cc(C)c(C)c(S(=O)(=O)N[C@@H](C)C(=O)OCC(N)=O)c1C,inactive: 97.2%
9,Cc1ccc(S(=O)(=O)N(C)C)cc1NC(=S)Nc1ccc2[nH]c(=O)[nH]c2c1,inconclusive: 115%
10,C[N+](C)=C1SCC(C)(/C=N/O)S1 (stereo not drawn),inconclusive: 104%
11,O=C(CC1SCCNC1=O)Nc1cccc([N+](=O)[O-])c1 (stereo not drawn),inconclusive: 78.6%
12,CCNC(=S)Nn1cnc2ccccc21,inconclusive: 113%
13,O=C(c1ccco1)N1CCN(CCCCOc2cccc3ccccc23)CC1,inactive: 105%
14,COc1ccc(SC[C@H](Cc2ccccc2)N2CCN(C)CCC2=O)cc1,inconclusive: 92.8%
15,O=c1c2ccccc2ncn1Cc1cccc2ccccc12,inconclusive: 107%
16,Cc1ccc(C)c(-c2nc3cc(N)ccc3o2)c1,inactive: 106%
17,CCOC(=O)Cc1csc(NC(=S)NC(=O)c2cc(OC)cc(OC)c2)n1,inconclusive: 102%
18,O=C(Cn1cnc2ccccc2c1=O)Nc1ccccc1N1CCOCC1,inconclusive: 93.5%
19,CCN(CC)C(=O)CSc1nc(O)c(Cc2ccccc2)c(=O)n1-c1ccccc1C,inconclusive: 63.8%
20,COc1ccc2[nH]c(C(=O)O)c(CCN3C(=O)c4cccc([N+](=O)[O-])c4C3=O)c2c1,inconclusive: 69.9%
21,COc1cc(/C=C2/SC(=Nc3ccc(O)cc3)NC2=O)ccc1O,inconclusive: 98.4%
22,O=C(O)c1ccc(COc2ccc3c(c2)CCC3)cc1,inconclusive: 87.9%
23,O=C(Cn1nnc(-c2cccc(C(F)(F)F)c2)n1)NNS(=O)(=O)c1cccc(C(F)(F)F)c1,inconclusive: 131%
24,Cc1c(CCC(=O)O)c(=O)oc2cc3occ(C(C)(C)C)c3cc12,inconclusive: 102%

row,Compound,binding response (% of control)
1,Cc1ccc(OCC(=O)Nc2ccc(CN3CCCCC3)cc2)c(C)c1,inconclusive: 107%
2,COCCn1c(NCc2ccco2)nc2c1c(=O)[nH]c(=O)n2C,inactive: 101%
3,Cc1c(OCC(=O)NC(Cc2c[nH]c3ccc(O)cc23)C(=O)O)ccc2c3c(c(=O)oc12)CCC3 (stereo not drawn),inconclusive: 106%
4,O=C(Nc1cccc(Cl)c1)c1cc(F)cc2c1OCOC2,inconclusive: 119%
5,Cc1ccc(CNC(=O)c2cccnc2Sc2cccc(Cl)c2)cc1,inconclusive: 33%
6,Nc1c(Cl)c(Cl)nc(C(=O)N/N=C/c2cccnc2)c1Cl,inconclusive: 77.2%
7,COc1ccc2c(C)cc(SCC(=O)Nc3cccnc3Cl)nc2c1,inactive: 104%
8,Nc1cc(=O)[nH]c(SCC(=O)Nc2cc([N+](=O)[O-])ccc2Cl)n1,inconclusive: 111%
9,COc1cc(OC)c(OC)cc1/C=N/Nc1nc2ccccc2[nH]1,inconclusive: -90.1%
10,Cc1nc(-c2ccc(S(=O)(=O)NCc3cccnc3)s2)cs1,inconclusive: 104%
11,CN(C(=O)Cc1noc2ccccc12)c1ccccc1,inactive: 94%
12,COc1cc(OC)c(-c2c3cc(O)c(=O)cc-3oc3cc(O)c(O)cc23)cc1OC,active: -3.17%
13,O=C(NC1CCCCC1)N(C1=NCCCCC1)c1ccc(Br)cc1,inactive: 101%
14,Cc1cc(NC(=O)CCN2C(=O)C3C4C=CC(C4)C3C2=O)ccc1Br (stereo not drawn),inconclusive: 118%
15,Cc1cc(Oc2ccc(=O)n(C)n2)nc(=S)[nH]1,inactive: 102%
16,CCOc1ccc(-n2c(C)nc3cc(C(=O)NCCCN4CCOCC4)ccc32)cc1,inactive: 107%
17,Cc1ccc(NC(=S)N2CCCCCC2)cc1,inconclusive: 91%
18,CCOc1ccccc1C(=O)N[C@H](C(=O)Nc1ccc(OC)c(S(=O)(=O)N2CCOCC2)c1)C(C)C,inactive: 98.2%
19,COc1ccc(NC(=O)Nc2ccccn2)cc1OC,inconclusive: 89.7%
20,O=C1C(=Cc2ccc(Br)o2)C(=O)c2ccccc21,active: 1.55%
21,COc1ccc(/C=N/NC(=O)c2ccc3nc[nH]c3c2)cc1,inconclusive: 75.2%
22,COc1ccc(-c2[nH]ncc2CN2CCC(c3ccncc3)CC2)cc1F,inconclusive: 77%
23,Cc1ccc(NP(=O)(Nc2ccc(C)cc2)Nc2ccc(C)cc2)cc1,inconclusive: 102%
24,CSCCC(N=C(NS(=O)(=O)c1ccc(C)cc1)c1ccccc1)C(=O)O (stereo not drawn),inconclusive: 102%

row,Compound,binding response (% of control)
1,Cn1nnnc1N=N/C(=N/Nc1ccccc1)c1ccccc1,inconclusive: 55.4%
2,COc1ccc(-c2csc(NC(=S)NC(=O)c3cccs3)n2)cc1Br,inconclusive: 97.4%
3,O=C(CSCc1c(F)cccc1Cl)NCCSCc1ccco1,inconclusive: 98.2%
4,O=C(Nc1cccc(C(F)(F)F)c1)c1cc(Br)cc2c1OCC2,inconclusive: 56.4%
5,O=S(=O)(Nc1cccc(-c2nnco2)c1)c1ccc(F)cc1F,inconclusive: -10.8%
6,CCCC[n+]1ccn(-c2nc3ccccc3nc2[N-]S(=O)(=O)c2ccc(Br)cc2)c1,inconclusive: 110%
7,CC(=O)c1cccc(CN2CCN(Cc3ccccc3)C(CCO)C2)c1 (stereo not drawn),inconclusive: 98.5%
8,S=C(NCCc1ccccc1)N/N=C/C1CCCCC1,inconclusive: 101%
9,CSc1sc(C(=O)NC(=O)NCc2ccncc2)c(C)c1-c1ccon1,inconclusive: 89.2%
10,Cc1cc(NC(=O)C2CC2)ncc1NC(=O)c1ccccn1,inactive: 101%
11,N#Cc1nc(COc2ccc(Br)cc2)oc1NCCN1CCOCC1,inactive: 133%
12,COCC1CCN(Cc2cn(-c3ccccc3F)nc2-c2cc(C)sc2C)CC1,inactive: 108%
13,O=c1ccc(Oc2nc(N3CCCCC3)nc(N3CCCCC3)n2)n[nH]1,inactive: 94.1%
14,CCCCn1c2c(c(=N)c3ccccc31)CCC2,inconclusive: 90.7%
15,Cc1ccccc1CO/N=C/c1[nH]ncc1Br,inconclusive: 84%
16,CCOC(=O)C(=O)Nc1cc(C(=O)OC)cc(C(=O)OC)c1,inconclusive: 83.9%
17,CCN1CCN(c2nc3c(C)cccn3c(=O)c2/C=C(\C#N)S(=O)(=O)c2ccc(Cl)cc2)CC1,inconclusive: 88.7%
18,CCCN1C(=O)S/C(=C/c2ccc(N3CCOCC3)o2)C1=O,inconclusive: 76.3%
19,C/C(=N\NC(=S)NC1CCCCC1)c1cccc(C(F)(F)F)c1,inconclusive: 126%
20,CCOc1cc(-c2nc(C)c(C(C)=O)n2O)ccc1OCC(=O)Nc1ccc(F)cc1,active: 158% [activator]
21,O=C1NCC(O)=C1C=NC12CC3CC(CC(C3)C1)C2,inactive: 99.8%

# Entries listed so far that contain a thiophene ring, fused or not, in the order listed:
row,Compound,binding response (% of control)
10,Cc1nc(-c2ccc(S(=O)(=O)NCc3cccnc3)s2)cs1,inconclusive: 104%
2,COc1ccc(-c2csc(NC(=S)NC(=O)c3cccs3)n2)cc1Br,inconclusive: 97.4%
9,CSc1sc(C(=O)NC(=O)NCc2ccncc2)c(C)c1-c1ccon1,inconclusive: 89.2%
12,COCC1CCN(Cc2cn(-c3ccccc3F)nc2-c2cc(C)sc2C)CC1,inactive: 108%
